Data set [1] in a line: HS-SPME GC-MS analysis of air samples from the bumblebee nest box before and during foraging. On the set-up: species or system Bombus terrestris. Particulars: for Amount of volatiles (substances also evaluated): all samples evaluated (nest box and tergites), LOQ: limit of quantification; for Amount of volatiles, Nest before foraging / Amount of volatiles, Nest during foraging: nest box airspace, average +/- SE, n=10.

A short description of data set [2]: HS-SPME GC-MS analysis of tergites of foragers before and during foraging. Particulars: average +/- SE; for Amount of volatiles, Tergites during foraging: tergites of 5 foragers just returned from the feeder; for Amount of volatiles, Tergites before foraging: tergites of 5 foragers not offered food. The arrangement: species or system Bombus terrestris.

Molecules are shown by their SMILES.

On to `COc1ccc(OC)c(OC)c1` [1,2,4-trimethoxybenzene], for which the “Amount of volatiles (substances also evaluated)” value in data set [1] is listed as “< LOQ”.

Take `COc1ccc(OC)cc1` [1,4-dimethoxybenzene]: the “Amount of volatiles (substances also evaluated)” value in data set [1] was “< LOQ”. On the same count and under the same terms, next, `CC1=CCC2C(C1)C2(C)C` (stereo not drawn) [3-carene]: “< LOQ”; `c1ccccc1` [Benzene]: “< LOQ”.

Take `CC12CCC(CC1)C(C)(C)O2` [Eucalyptol, 1,3,3-Trimethyl-2-oxabicyclo[2.2.2.]octane]: in data set [2], the “Amount of volatiles, Tergites during foraging” value amounted to 622.4 ± 134.4 nanograms and the “Amount of volatiles, Tergites before foraging” value is “<LOQ***”. Moreover, in data set [1], the “Amount of volatiles, Nest before foraging” value is “<LOQ**” and the “Amount of volatiles, Nest during foraging” value turned out to be 799.2 ± 227.9 nanograms. In the case of `C=CC(C)(O)CCC=C(C)C` (stereo not drawn) [Linalool], in data set [2], the “Amount of volatiles, Tergites during foraging” value was found to be 160.0 ± 149.1 nanograms and the “Amount of volatiles, Tergites before foraging” value was 169.4 ± 170.3 nanograms. Besides, in data set [1], the “Amount of volatiles, Nest before foraging” value is on record as 554.1 ± 242.7 nanograms and the “Amount of volatiles, Nest during foraging” value is reported as 788 ± 237.1 nanograms.

Turning to `C=CC(=C)CCC=C(C)C` [Myrcene], in data set [2], the “Amount of volatiles, Tergites during foraging” value was found to be 627.4 ± 241.7 nanograms and the “Amount of volatiles, Tergites before foraging” value is on record as 546.4 ± 126.8 nanograms. In data set [1], the “Amount of volatiles, Nest before foraging” value was 991.3 ± 650.7 nanograms and the “Amount of volatiles, Nest during foraging” value came to 976.5 ± 471.2 nanograms. For `Cc1ccccc1` [Toluene] the same measures were 624.4 ± 270.6 nanograms, 453.2 ± 143.4 nanograms, 920.8 ± 114.3 nanograms and 912.1 ± 353.3 nanograms. Regarding `O=CC=Cc1ccccc1` [cinnamaldehyde], in data set [1], the “Amount of volatiles (substances also evaluated)” value is “< LOQ”. Still for that read-out and setting: next, `OCC=Cc1ccccc1` [cinnamyl alcohol]: “< LOQ”. On the same count and under the same terms, next, `CC(C)=CCCC(C)=CC=O` [citral]: “< LOQ”; `CCCCOC(=O)c1ccccc1C(=O)OCCCC` [dibuthyl phthalate]: “< LOQ”; `C=CCc1ccc(O)c(OC)c1` [eugenol]: “< LOQ”. Still for that read-out and setting: next, `CC(C)=CCC/C(C)=C/C(=O)O` [geranic acid]: “< LOQ”.

For the compound `CC(=O)OC/C=C(\C)CCC=C(C)C` [geranyl acetate], the “Amount of volatiles (substances also evaluated)” value in data set [1] is listed as “< LOQ”. As for `c1ccc2[nH]ccc2c1` [indole], the “Amount of volatiles (substances also evaluated)” value in data set [1] is reported as “< LOQ”. Same read-out and setting: next, `Cc1ccccc1C` [o-xylene]: “< LOQ”; `COc1ccc(C=O)cc1` [p-anisaldehyde]: “< LOQ”.

The record behind these values is patent US20090208445A1, “Compositions Comprising Eucalyptol And/Or Ocimene And/Or Farnesol For Use As Bumblebee Pheromones” (QUEEN MARY & WESTFIELD COLLEGE, priority 2005, published 2009).
